Values of other authors in PMC5385157 (Neuropharmacology, 2016).
pKi: −log10 of the molar value. Where two headings read alike, the source gives them in different places.

Target: human α2AAR
Settings: ref NIMH Psychoactive Drug Screening Program (PDSP) Ki Database, cited from earlier work

OCCN1CCN(CCCN2c3ccccc3Sc3ccc(C(F)(F)F)cc32)CC1 [Fluphenazine, fluphenazine]
pKi (read-out: Reported values at human α2AAR, Avg.): 6.50 | pKi (read-out: Reported values at human α2AAR, Range): 6.50
